Assay [1] addresses 3×HA-tagged ligase-dead Tom1 (^3×HATom1^CA, Cys3235Ala) (S. cerevisiae) (UniProt Q03280). In words: co-IP; cells treated with bortezomib for 30 min after galactose induction of Rpl26a^FLAG, lysed and fractionated on a sucrose gradient; immunoprecipitation from the low MW (non-ribosomal) fractions.
The target of assay [2] is 3×HA-tagged Tom1 (^3×HATom1) (S. cerevisiae) (UniProt Q03280). The description is as above.
Assay [3] concerns the target 3×HA-tagged ligase-dead Tom1 (^3×HATom1^CA, Cys3235Ala) (S. cerevisiae) (UniProt Q03280). In words: co-IP; anti-HA immunoprecipitates from lysates of yeast cells expressing ^3×HATom1 or ^3×HATom1^CA and galactose-induced Rpl26a^FLAG (wild type or 4E), in some experiments after bortezomib; immunoblot with anti-HA and anti-FLAG.
In assay [4] the target is 3×HA-tagged Tom1 (^3×HATom1) (S. cerevisiae) (UniProt Q03280). The assay is described as above.

By UniProt entry, the sequences of proteins in these tests, tags left out. Where a name states a change or a piece, a line headed by the entry shows the natural chain unless it says otherwise.
UniProt Q03280: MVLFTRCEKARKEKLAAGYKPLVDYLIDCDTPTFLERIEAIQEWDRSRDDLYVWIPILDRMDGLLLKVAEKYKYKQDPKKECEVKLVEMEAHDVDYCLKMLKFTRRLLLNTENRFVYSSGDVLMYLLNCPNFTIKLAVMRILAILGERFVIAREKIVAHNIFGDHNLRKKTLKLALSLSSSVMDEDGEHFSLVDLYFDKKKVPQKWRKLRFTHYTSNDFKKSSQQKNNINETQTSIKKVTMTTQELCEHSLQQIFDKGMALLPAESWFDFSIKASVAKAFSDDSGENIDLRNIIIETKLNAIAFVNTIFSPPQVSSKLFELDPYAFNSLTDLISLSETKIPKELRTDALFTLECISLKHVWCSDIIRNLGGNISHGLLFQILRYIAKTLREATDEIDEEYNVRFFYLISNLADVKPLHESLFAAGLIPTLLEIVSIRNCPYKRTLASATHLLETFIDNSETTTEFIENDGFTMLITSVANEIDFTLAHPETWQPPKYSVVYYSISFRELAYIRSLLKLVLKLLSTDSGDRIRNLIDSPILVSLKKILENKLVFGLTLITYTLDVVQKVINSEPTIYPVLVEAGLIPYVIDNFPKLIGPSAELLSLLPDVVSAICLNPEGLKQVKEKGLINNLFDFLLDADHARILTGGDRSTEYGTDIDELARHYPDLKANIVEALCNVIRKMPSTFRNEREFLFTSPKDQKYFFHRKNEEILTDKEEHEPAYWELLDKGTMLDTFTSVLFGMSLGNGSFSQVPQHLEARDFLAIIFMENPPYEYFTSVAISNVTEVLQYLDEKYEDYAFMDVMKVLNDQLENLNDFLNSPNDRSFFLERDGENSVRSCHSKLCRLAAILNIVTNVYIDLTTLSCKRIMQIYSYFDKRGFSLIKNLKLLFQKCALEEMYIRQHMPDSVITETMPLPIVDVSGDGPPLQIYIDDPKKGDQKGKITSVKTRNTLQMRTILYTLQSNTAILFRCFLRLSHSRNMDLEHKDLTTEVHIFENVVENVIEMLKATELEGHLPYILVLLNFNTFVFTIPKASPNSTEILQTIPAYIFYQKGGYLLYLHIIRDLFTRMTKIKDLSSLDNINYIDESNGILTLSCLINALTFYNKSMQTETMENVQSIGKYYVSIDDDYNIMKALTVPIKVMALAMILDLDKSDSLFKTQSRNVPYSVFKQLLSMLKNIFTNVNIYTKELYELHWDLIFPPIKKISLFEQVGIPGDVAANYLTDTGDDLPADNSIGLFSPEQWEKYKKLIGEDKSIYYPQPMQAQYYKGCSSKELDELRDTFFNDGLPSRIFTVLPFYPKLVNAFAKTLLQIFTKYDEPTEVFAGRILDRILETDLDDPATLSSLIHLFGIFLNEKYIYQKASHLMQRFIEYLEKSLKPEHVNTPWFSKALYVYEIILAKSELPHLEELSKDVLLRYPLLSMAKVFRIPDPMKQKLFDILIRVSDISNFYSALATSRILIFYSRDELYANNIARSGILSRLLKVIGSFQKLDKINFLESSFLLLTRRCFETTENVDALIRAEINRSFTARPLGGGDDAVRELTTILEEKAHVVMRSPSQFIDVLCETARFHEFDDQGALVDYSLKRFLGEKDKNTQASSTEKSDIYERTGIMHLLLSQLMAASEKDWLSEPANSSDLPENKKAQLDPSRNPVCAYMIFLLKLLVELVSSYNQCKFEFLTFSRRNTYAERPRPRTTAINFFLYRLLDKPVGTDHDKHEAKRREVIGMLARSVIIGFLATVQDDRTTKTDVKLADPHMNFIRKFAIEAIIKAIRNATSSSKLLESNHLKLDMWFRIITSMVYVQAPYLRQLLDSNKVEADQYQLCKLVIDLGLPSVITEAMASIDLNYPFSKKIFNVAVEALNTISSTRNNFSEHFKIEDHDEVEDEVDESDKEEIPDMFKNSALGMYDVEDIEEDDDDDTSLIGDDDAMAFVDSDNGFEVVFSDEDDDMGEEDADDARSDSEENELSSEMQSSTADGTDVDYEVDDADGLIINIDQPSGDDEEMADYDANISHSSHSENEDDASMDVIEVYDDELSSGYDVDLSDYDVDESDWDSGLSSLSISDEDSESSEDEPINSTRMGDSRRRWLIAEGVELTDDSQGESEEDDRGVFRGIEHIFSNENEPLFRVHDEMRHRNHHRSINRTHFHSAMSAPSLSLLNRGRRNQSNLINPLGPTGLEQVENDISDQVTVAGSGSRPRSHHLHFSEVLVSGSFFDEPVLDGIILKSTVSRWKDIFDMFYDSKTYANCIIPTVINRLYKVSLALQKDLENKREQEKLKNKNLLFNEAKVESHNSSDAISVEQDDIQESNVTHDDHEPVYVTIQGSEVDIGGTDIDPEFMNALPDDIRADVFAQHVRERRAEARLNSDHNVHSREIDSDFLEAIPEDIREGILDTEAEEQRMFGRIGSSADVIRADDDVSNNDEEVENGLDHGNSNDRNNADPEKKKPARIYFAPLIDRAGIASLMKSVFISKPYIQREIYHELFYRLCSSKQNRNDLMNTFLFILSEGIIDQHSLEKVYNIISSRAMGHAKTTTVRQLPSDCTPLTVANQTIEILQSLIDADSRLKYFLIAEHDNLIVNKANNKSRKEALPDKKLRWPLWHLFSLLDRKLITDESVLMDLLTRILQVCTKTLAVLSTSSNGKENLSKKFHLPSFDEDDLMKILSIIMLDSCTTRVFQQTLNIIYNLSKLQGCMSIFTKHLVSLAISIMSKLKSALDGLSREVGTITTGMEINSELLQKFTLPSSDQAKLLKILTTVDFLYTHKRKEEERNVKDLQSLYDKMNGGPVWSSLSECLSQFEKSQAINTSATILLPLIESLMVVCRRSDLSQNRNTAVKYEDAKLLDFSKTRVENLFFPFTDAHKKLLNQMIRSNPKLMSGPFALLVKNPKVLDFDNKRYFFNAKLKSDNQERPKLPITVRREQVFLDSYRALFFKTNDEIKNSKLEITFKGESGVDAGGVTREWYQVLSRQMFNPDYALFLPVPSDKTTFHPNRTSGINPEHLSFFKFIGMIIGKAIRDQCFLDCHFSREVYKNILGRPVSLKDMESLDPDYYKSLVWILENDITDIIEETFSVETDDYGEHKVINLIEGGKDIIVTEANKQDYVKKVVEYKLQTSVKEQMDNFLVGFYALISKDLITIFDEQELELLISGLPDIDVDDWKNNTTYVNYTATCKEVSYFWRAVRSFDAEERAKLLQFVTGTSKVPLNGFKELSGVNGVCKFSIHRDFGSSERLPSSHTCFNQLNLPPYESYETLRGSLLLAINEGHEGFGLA
UniProt P05743: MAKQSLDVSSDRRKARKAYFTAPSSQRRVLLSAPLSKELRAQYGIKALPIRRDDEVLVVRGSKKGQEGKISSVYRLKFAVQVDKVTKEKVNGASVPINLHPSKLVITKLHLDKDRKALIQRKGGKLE

Results are given in words; binding and its absence hold for the method and conditions named. Binding seen in cells or lysates may run through a third protein. Some binding calls cover weakened binding; strength is not graded here.

For “Rpl26a tagged with a FLAG epitope (Rpl26a^FLAG) (from UniProt P05743 1-127)”, the binding result in assay [1], in assay [2], in assay [3] and in assay [4] was “binds” in each case.
In the case of “Rpl26a-4E^FLAG (R12E, R13E, R16E, K17E) (from UniProt P05743 1-127)”, the binding result in assay [4] is given as “binds weakly”.

(Values after paper PMC5026473.)
